{"source": "PubChem BioAssay AID504786, Drosophila RNAi Screening Center – 2011", "screen": "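Knock-downs reducing HIF reporter induction by the iron chelator DFO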 (primary screen)", "cells": "Drosophila S2 cells with a stable HIF luciferase reporter", "reagent": "long dsRNA against Drosophila genes, about 0.2 µg dsRNA per well of a 384-well plate", "duration": "three days of knock-down, then 20 h of DFO before reading", "treatment": "desferrioxamine (DFO) at 100 µM, an iron chelator that mimics hypoxia, for 20 h", "measured": "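Firefly luciferase driven by the mouse ldh-a hypoxia-response element, measured after 20 h of 100 µM DFO; z-scores per plate, higher means more signal lost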", "direction": "z-score: higher = stronger loss of HIF reporter signal", "note": "In all, the deposit lists about 21,000 reagents; shown is a random part of those that have a named target and a result. 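Primary screen; positive scores mean lost reporter signal, so the sign may be inverted from the usual convention.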 The numbers tell different reagents against one gene apart."}
{"gene": "Pkc53E", "reagent": 1, "z-score, replicate 1": -0.1, "z-score, replicate 2": -0.2}
{"gene": "Pkc53E", "reagent": 2, "z-score, replicate 1": -0.3, "z-score, replicate 2": -0.3}
{"gene": "CG31459", "reagent": 1, "z-score, replicate 1": -0.2, "z-score, replicate 2": 0}
{"gene": "CG13458", "reagent": 1, "z-score, replicate 1": -0.3, "z-score, replicate 2": -0.2}
{"gene": "CG1824", "reagent": 1, "z-score, replicate 1": -0.2, "z-score, replicate 2": 0.3}
{"gene": "klg", "reagent": 1, "z-score, replicate 1": 0.1, "z-score, replicate 2": 0.1}
{"gene": "klg", "reagent": 2, "z-score, replicate 1": -0.2, "z-score, replicate 2": -0.6}
{"gene": "CG18540", "reagent": 1, "z-score, replicate 1": -0.2, "z-score, replicate 2": -0.2}

Continued, starting with the last 2 of the part before.
{"gene": "klg", "reagent": 2, "z-score, replicate 1": -0.2, "z-score, replicate 2": -0.6}
{"gene": "CG18540", "reagent": 1, "z-score, replicate 1": -0.2, "z-score, replicate 2": -0.2}
{"gene": "Pkcdelta", "reagent": 1, "z-score, replicate 1": -0.2, "z-score, replicate 2": 0.6}
{"gene": "Pkcdelta", "reagent": 2, "z-score, replicate 1": -0.1, "z-score, replicate 2": 0.3}
{"gene": "CG34241", "reagent": 1, "z-score, replicate 1": -0.4, "z-score, replicate 2": -0.7}
{"gene": "Snx1", "reagent": 1, "z-score, replicate 1": -0.3, "z-score, replicate 2": -0.1}
{"gene": "CG3819", "reagent": 1, "z-score, replicate 1": -0.1, "z-score, replicate 2": 0.1}
{"gene": "anchor", "reagent": 1, "z-score, replicate 1": -0.3, "z-score, replicate 2": -0.1}
{"gene": "Tsp42En", "reagent": 1, "z-score, replicate 1": -0.3, "z-score, replicate 2": -0.5}
{"gene": "Orc5", "reagent": 1, "z-score, replicate 1": -0.3, "z-score, replicate 2": -0.4}
